PubChem BioAssay AID493246 – Drosophila RNAi Screening Center | 2011
Purpose: 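Identify essential fly genes by loss of cell viability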 (primary screen). Cell system: Drosophila Kc and S2R+ cells. Reagents: long dsRNA against Drosophila genes. Measured: 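Raw, unnormalised count of remaining cells in each well; per-plate z-scores of cell number underlie the calls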. Scale: Kc cell number and S2R+ cell number: higher = more cells remaining. Call rule: 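Active when the per-plate z-score of cell number is 3 or more in the direction of fewer cells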.
In all, the deposit lists about 21,000 reagents; shown is an unselected part of those with a known target gene and a result. Of all reagents, 429 (2%) are marked active. 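Values are raw and not normalised between plates; calls rest on per-plate z-scores that were not deposited.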 Unmarked entries are inactive. The numbers tell different reagents against one gene apart. A plus sign joins genes that one reagent is predicted to hit. Not given: the amount of reagent, the time to read-out.

Target gene,dsRNA no.,"Kc cell number, rep 1","Kc cell number, rep 2","S2R+ cell number, rep 1","S2R+ cell number, rep 2"
CG3558 (GeneID 48421),1,1.33e6,1.30e6,8.48e5,9.65e5
CG18418 (GeneID 38572),1,1.44e6,1.44e6,1.28e6,1.22e6
5-HT2B (GeneID 41017),1,1.44e6,1.57e6,1.28e6,1.43e6
5-HT2B (GeneID 41017),2,1.54e6,1.70e6,1.31e6,1.45e6
eIF3e (GeneID 39877),1,1.23e6,1.25e6,8.91e5,9.74e5
fax (GeneID 39826),1,1.47e6,1.51e6,1.00e6,1.14e6
CG31827 + CG18478,1,1.50e6,1.58e6,1.24e6,1.37e6
ms(3)76Cc (GeneID 40142),1,1.46e6,1.43e6,1.36e6,1.48e6
dwg (GeneID 31265),1,5.59e5,,8.69e5,
CG13996 (GeneID 33842),1,1.87e6,2.06e6,1.26e6,1.37e6
ldbr (GeneID 38900),1,1.44e6,1.44e6,1.33e6,1.24e6
CG4586 (GeneID 31641),1,5.76e5,,9.61e5,
Fuca (GeneID 3772574),1,1.48e6,1.71e6,1.33e6,1.36e6
CG31441 (GeneID 326139),1,1.77e6,1.84e6,1.38e6,1.50e6
eEFSec (GeneID 37444),1,1.47e6,1.59e6,1.23e6,2.55e5
CG13738 (GeneID 39541),1,1.75e6,1.60e6,1.02e6,1.12e6
CG8299 (GeneID 36751),1,1.59e6,1.59e6,1.21e6,1.33e6
CG13627 (GeneID 42941),1,1.38e6,1.42e6,1.03e6,1.16e6
Obp58c (GeneID 37608),1,1.46e6,1.55e6,1.28e6,1.37e6
Usp1 (GeneID 43462),1,5.56e5,,7.99e5,
CG7203 (GeneID 34055),1,1.60e6,1.61e6,1.12e6,1.21e6
yellow-c + CIAPIN1,1,1.56e6,1.59e6,1.33e6,1.39e6
CG7460 (GeneID 39973),1,1.43e6,1.52e6,1.32e6,1.47e6
CG3223 (GeneID 40947),1,1.51e6,1.73e6,1.29e6,1.32e6
P5cr-2 (GeneID 42106),1,1.20e6,1.26e6,1.21e6,1.39e6
CG34167 (GeneID 5740831),1,1.44e6,1.49e6,9.37e5,1.11e6
ksh (GeneID 50363),1,1.56e6,1.65e6,1.13e6,1.24e6
Mcm10 (GeneID 35390),1,1.27e6,1.26e6,1.10e6,1.05e6
CG1638 (GeneID 43721),1,1.61e6,1.75e6,1.04e6,1.20e6
CG11816 (GeneID 32310),1,1.51e6,1.43e6,1.03e6,1.17e6
CG14301 (GeneID 42235),1,1.25e6,1.19e6,1.15e6,1.25e6
Spred (GeneID 36643),1,1.47e6,1.53e6,1.14e6,1.23e6
rho (GeneID 38168),1,1.60e6,1.55e6,1.01e6,1.16e6
CG13196 (GeneID 36250),1,1.57e6,1.67e6,1.35e6,1.43e6
SelG (GeneID 32149),1,6.09e5,,8.78e5,
CG15210 (GeneID 50323),1,1.71e6,1.63e6,1.09e6,1.16e6
Ccs (GeneID 46035),1,1.55e6,1.55e6,1.27e6,1.25e6
CG13685 (GeneID 38869),1,1.61e6,1.63e6,1.15e6,1.19e6
CG9631 (GeneID 41729),1,1.55e6,1.62e6,1.17e6,1.24e6
bi (GeneID 31379),1,1.63e6,1.58e6,1.07e6,1.18e6
Roc2 (GeneID 36246),1,1.61e6,1.59e6,1.27e6,1.31e6
Nup62 (GeneID 36830),1,1.29e6,1.37e6,1.14e6,1.14e6
gpp (GeneID 40793),1,1.57e6,1.61e6,1.10e6,1.35e6
gpp (GeneID 40793),2,1.58e6,1.72e6,1.04e6,1.20e6
CG30467 (GeneID 36719),1,1.75e6,1.70e6,1.27e6,1.39e6
Rab9D + Rab9Fa + Rab9E,1,1.53e6,1.48e6,1.07e6,1.13e6
CG14540 (GeneID 43145),1,1.47e6,1.44e6,8.61e5,9.64e5
p53 (GeneID 2768677),1,1.51e6,1.56e6,1.18e6,1.24e6
inaF-B + inaF-D + inaF-C + 1 more,1,1.55e6,1.47e6,9.62e5,1.04e6
Best4 (GeneID 39660),1,1.58e6,1.73e6,1.38e6,1.45e6
Naxe (GeneID 31944),1,1.59e6,1.48e6,1.08e6,1.22e6
CG14630 (GeneID 44620),1,1.61e6,1.57e6,1.07e6,1.22e6
CG14630 (GeneID 44620),2,1.52e6,1.49e6,1.06e6,1.21e6
gammaSnap2 (GeneID 41239),1,1.50e6,1.54e6,1.35e6,1.47e6
twz (GeneID 37456),1,1.63e6,1.74e6,1.36e6,3.08e5
CG17224 (GeneID 33510),1,1.65e6,1.66e6,1.23e6,1.41e6
Hsp70Bb + Hsp70Bbb,1,1.45e6,1.58e6,1.24e6,1.33e6
fau (GeneID 41291),1,1.48e6,1.54e6,1.08e6,1.26e6
fau (GeneID 41291),2,1.55e6,1.59e6,1.14e6,1.34e6
fau (GeneID 41291),3,1.67e6,1.72e6,1.31e6,1.46e6
fau (GeneID 41291),4,1.45e6,1.53e6,1.27e6,1.31e6
fau (GeneID 41291),5,1.33e6,1.30e6,9.91e5,1.09e6
CG42656 (GeneID 10178806),1,1.45e6,1.61e6,1.16e6,1.33e6
CG8051 (GeneID 32925),1,1.64e6,1.60e6,1.04e6,1.22e6
Cyp6g1 (GeneID 36316),1,1.31e6,1.35e6,9.93e5,1.06e6
CG5902 (GeneID 42839),1,1.50e6,1.53e6,1.14e6,1.26e6
CG13601 (GeneID 42826),1,1.51e6,1.54e6,1.23e6,1.31e6
Chrac-16 (GeneID 32166),1,1.88e6,1.84e6,8.67e5,9.66e5
CG6236 (GeneID 41857),1,1.60e6,1.65e6,1.38e6,1.46e6
RYBP (GeneID 37601),1,1.42e6,1.49e6,1.07e6,1.12e6
Fam92 (GeneID 34654),1,1.32e6,1.36e6,1.08e6,1.19e6
CG11291 (GeneID 37541),1,1.61e6,1.64e6,1.27e6,4.65e5
RabX2 (GeneID 31971),1,1.39e6,1.49e6,1.07e6,1.19e6
yellow-g2 (GeneID 38295),1,1.32e6,1.36e6,1.03e6,1.33e6
snsl (GeneID 33696),1,1.47e6,1.46e6,1.15e6,1.29e6

Targets listed so far whose gene name begins with G or g (3):
Target gene,dsRNA no.,"Kc cell number, rep 1","Kc cell number, rep 2","S2R+ cell number, rep 1","S2R+ cell number, rep 2"
gpp (GeneID 40793),1,1.57e6,1.61e6,1.10e6,1.35e6
gpp (GeneID 40793),2,1.58e6,1.72e6,1.04e6,1.20e6
gammaSnap2 (GeneID 41239),1,1.50e6,1.54e6,1.35e6,1.47e6
